This passage reports binding results from article PMC7286916.

Amino acid sequences for entries named in this document (tags omitted). A change or cut given only in a name is not applied to a line headed by its entry. Residues count along the entry.
UniProt P37231: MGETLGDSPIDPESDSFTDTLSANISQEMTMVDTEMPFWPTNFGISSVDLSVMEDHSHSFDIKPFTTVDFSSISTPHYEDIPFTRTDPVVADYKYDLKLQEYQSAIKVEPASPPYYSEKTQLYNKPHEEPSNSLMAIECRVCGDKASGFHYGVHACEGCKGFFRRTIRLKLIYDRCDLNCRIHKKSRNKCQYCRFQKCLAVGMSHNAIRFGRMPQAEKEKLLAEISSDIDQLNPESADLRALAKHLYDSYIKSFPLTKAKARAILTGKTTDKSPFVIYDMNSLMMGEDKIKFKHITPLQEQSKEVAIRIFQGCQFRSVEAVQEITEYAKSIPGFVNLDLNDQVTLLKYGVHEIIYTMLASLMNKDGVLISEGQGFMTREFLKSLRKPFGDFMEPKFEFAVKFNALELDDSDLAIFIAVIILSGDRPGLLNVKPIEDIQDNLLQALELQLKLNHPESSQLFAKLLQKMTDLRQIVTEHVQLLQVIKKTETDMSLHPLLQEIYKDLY
GFP-PPARγ: residues 29-505 of P37231

Results are given in words; binding and its absence hold for the method and conditions named. Binding seen in cells or lysates may run through a third protein. Some binding calls cover weakened binding; strength is not graded here. For some assays here: Tags and fused reporters may be left off the sequences shown.

The target of experiment [1] is T1, MTMR7 (FL), untagged, ectopic (human) (UniProt Q9Y216).
T1 sequence: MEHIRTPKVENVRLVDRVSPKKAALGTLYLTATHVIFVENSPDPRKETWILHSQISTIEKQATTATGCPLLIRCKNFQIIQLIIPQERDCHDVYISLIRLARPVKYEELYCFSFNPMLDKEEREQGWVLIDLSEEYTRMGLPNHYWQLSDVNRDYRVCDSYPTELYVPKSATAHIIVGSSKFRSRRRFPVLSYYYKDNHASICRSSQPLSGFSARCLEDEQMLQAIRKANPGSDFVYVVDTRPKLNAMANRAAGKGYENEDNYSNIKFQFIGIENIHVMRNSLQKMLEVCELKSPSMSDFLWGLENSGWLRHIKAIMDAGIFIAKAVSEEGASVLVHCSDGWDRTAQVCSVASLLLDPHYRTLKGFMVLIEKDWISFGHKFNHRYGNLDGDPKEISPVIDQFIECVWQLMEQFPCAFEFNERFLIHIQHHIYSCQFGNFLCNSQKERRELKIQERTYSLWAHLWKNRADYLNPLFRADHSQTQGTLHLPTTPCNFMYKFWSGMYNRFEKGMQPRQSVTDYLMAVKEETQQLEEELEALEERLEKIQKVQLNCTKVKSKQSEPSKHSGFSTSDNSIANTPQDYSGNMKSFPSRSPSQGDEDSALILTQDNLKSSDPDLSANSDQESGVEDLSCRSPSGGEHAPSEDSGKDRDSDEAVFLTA
Briefly: co-IP; ectopic proteins; HEK293T co-transfected with GFP-PPARγ and MTMR7 (FL) for 24 h; cytosolic lysates; IP with MTMR7 (#121222) or PPARγ (#7196) Ab-conjugated beads.

Experiment [2] has as its target Peroxisome proliferator-activated receptor-gamma (PPARγ), endogenous (human (endogenous in SW480 and HCT116)) (UniProt P37231). Nature of the experiment: co-IP; endogenous proteins; cytosolic lysates of normal cycling HCT116 cells after subcellular fractionation; IP with MTMR7 or PPARγ Ab-conjugated or unconjugated beads; IB with MTMR7 Ab.
A further experiment addresses PPARγ, untagged, ectopic (UniProt P37231). Nature of the experiment: proximity ligation; HEK293T co-transfected for 24 h with untagged PPARγ and GFP-MTMR7 FL, or with untagged MTMR7 FL and GFP-PPARγ; PPARγ (#2435) or MTMR7 (#121222) Ab together with GFP Ab; immunofluorescence microscopy.
Experiment [3] has as its target GFP-PPARγ (UniProt P37231). Briefly: co-IP; ectopic proteins; HEK293T co-transfected with GFP-PPARγ and MTMR7 (FL) for 24 h; cytosolic lysates; IP with MTMR7 (#121222) or PPARγ (#7196) Ab-conjugated beads.
Experiment [4] has as its target GFP-PPARγ (UniProt P37231). Nature of the experiment: proximity ligation; HEK293T co-transfected for 24 h with untagged PPARγ and GFP-MTMR7 FL, or with untagged MTMR7 FL and GFP-PPARγ; PPARγ (#2435) or MTMR7 (#121222) Ab together with GFP Ab; immunofluorescence microscopy.

In the case of GFP-PPARγ (from UniProt P37231-2 1-477), the binding entry in experiment [1] was “binds”.

B1: Myotubularin-related protein 7 (MTMR7), endogenous full-length 76 kDa (protein, UniProt Q9Y216 1-660)
chain: T1 sequence
Turning to B1, the binding entry in experiment [2] is “binds”.

B2: GFP-MTMR7 FL (protein, UniProt Q9Y216-1 1-660)
chain: T1 sequence
Take B2: the binding result in the experiment with PPARγ, untagged, ectopic is “binds”.

B3: MTMR7 (FL), untagged, ectopic (protein, UniProt Q9Y216-1 1-660)
chain: T1 sequence
For the molecule B3, the binding result in the experiment with GFP-PPARγ [3] and with GFP-PPARγ [4] was “binds” each time.
